From PubChem BioAssay AID1487 (National Center for Advancing Translational Sciences (NCATS), 2009) come the findings set out here.

Each structure is given as a SMILES string. Some of the results follow. The main result of the screen is listed elsewhere. These columns were measured beside it and carry no call. Most of these compounds were active or inconclusive in the main read-out, so they are no random draw. Words in brackets tell the shape of the fitted curve; partial curves, single points and poor fits give uncertain potencies.

The experiment can be described thus: qHTS Assay for Modulators of Lamin A Splicing. As to conditions: HeLa LMNA splicing GFP/RFP minigene ratio, 48 h. In short, it runs like this: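 S3 HeLa stable clones carrying a lamin A-EGFP splicing minigene plus DsRed2 were seeded at 600 cells/well in Opti-MEM with 2% FBS, pin-dosed and incubated 48 h at 37°C. Acumen cytometry (488 nm) gave the GFP/RFP total-intensity ratio.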

Where [1] appears, read: measured here: RFP viability control channel.
Setting [2] is: measured here: GFP splicing reporter channel.

As a reminder, the AC50 is the concentration at which the activity in the assay is half-maximal. On to `CCOC(=O)c1cnc(SC)nc1Oc1cccc(NS(=O)(=O)c2ccc(Cl)cc2)c1`, for which the AC50 under setting [1] was 0.0891 µM [rising, full curve, poor fit].
With `CCCc1cc(-c2nc(-c3ccc(Cl)cc3)cs2)ccn1`, the AC50 is, setting by setting: under setting [2], 25.1 µM [rising, single point]; under setting [1], 31.6 µM [rising, single point].
With `CN(C)/C=N/c1[nH]ncc1C#N`, the AC50 under setting [2] was 3.98 µM [rising, partial curve, poor fit].
As for `COc1ccc(C(=O)N/N=C/c2cccc3cccnc23)cc1`, the half-maximal activity concentration (AC50) under setting [2] was 35.5 µM [falling, single point] and the AC50 under setting [1] is 35.5 µM [falling, single point].
Take `Cc1nn(-c2ccccc2)c(Cl)c1CN(C(=O)CCl)c1ccc(Cl)cc1`: the concentration at half-maximal activity (AC50) by setting is: under setting [2], 12.6 µM [falling, partial curve]; under setting [1], 17.8 µM [falling, single point].
With `COc1ccc(CCNC(=O)C(=O)Nc2ccc3c(c2)OCCO3)cc1OC`, the AC50 is 2 µM [rising, full curve, poor fit] under setting [2] and 0.02 µM [rising, full curve, poor fit] under setting [1].
As to `O=C(Cn1c(=O)nc(-c2ccccc2)c2ccccc21)Nc1ccc(Cl)c(C(F)(F)F)c1`, under setting [2], the half-maximal activity concentration (AC50) is 3.98 µM [rising, full curve].
As for `Cc1[nH]c2ccccc2c1C(c1ccccn1)N1CCC(C(N)=O)CC1` (stereo unspecified), the concentration at half-maximal activity (AC50) was 15.8 µM [rising, single point] under setting [2] and 14.1 µM [rising, single point] under setting [1].
On to `Cc1ccc(Cn2ccc(NC(=O)c3cc(CC(C)C)on3)n2)cc1`, for which the half-maximal activity concentration (AC50) under setting [1] was 12.6 µM [rising, partial curve].
On the same count and under the same terms, with `COC(=O)CCCC1=CC2=CC(=O)C(C)(OC(=O)c3cccs3)C(=O)C2=CN1C(CO)CO` (stereo unspecified) the figure was 0.282 µM [falling, partial curve].
On the same count and under the same terms, the result for `COCCNC(=O)C(c1ccc(C)o1)N(C(=O)c1snc(C(N)=O)c1N)c1cc(C)cc(C)c1` (stereo unspecified) reads 10 µM [rising, single point].
As for `Cn1c(=O)c2c(SCC(=O)N3CCc4ccccc43)nc(-c3ccccc3Cl)nc2n(C)c1=O`, under setting [2], the AC50 was 0.158 µM [rising, full curve, poor fit].
Turning to `Cc1ccc(C)c(NC(=O)c2ccc3c(c2)N(Cc2ccc(F)cc2)C(=O)CS3=O)c1` (stereo unspecified), the AC50 was 7.08 µM [rising, partial curve] under setting [2] and 2.24 µM [rising, partial curve] under setting [1].
Turning to `c1ccc2c(c1)ncn2CCCCOc1ccc2c(c1)CCC2`, the AC50 under setting [1] is 10 µM [rising, single point].
Consider `CN(CCO)c1c2c(nc3cc(-c4cccc(F)c4)nn13)CCCC2`, for which the concentration at half-maximal activity (AC50) reads like this: under setting [2], 3.98 µM [rising, full curve]; under setting [1], 4.47 µM [rising, full curve].
Regarding `COc1ccc(OC)c(NC(=O)c2cc(-c3cc(Cl)ccc3O)n[nH]2)c1`, the AC50 was 12.6 µM [rising, partial curve] under setting [2] and 35.5 µM [rising, single point] under setting [1].
For the compound `Cc1ccc(C)n1-c1ccc(C(=O)/C=C/N(C)C)cc1`, the AC50 under setting [2] is 1.12 µM [rising, partial curve, poor fit] and the half-maximal activity concentration (AC50) under setting [1] was 3.98 µM [rising, single point].
As for `CCC12CN3CCN(CC(C3)/C1=N\NC(=O)c1ccc(C(C)(C)C)cc1)C2`, under setting [1], the AC50 was 3.16 µM [rising, full curve, poor fit].
Same read-out and setting: the result for `Brc1cc(Br)c2ncnc(N3CCCCC3)c2c1` reads 35.5 µM [rising, single point]; that for `CCOC(=O)CCn1cc(F)c(=O)[nH]c1=O`, 0.0141 µM [falling, full curve, poor fit].
`C/C(=N\NC(=O)C(c1ccccc1)c1ccccc1)c1ccccn1`: the AC50 under setting [2] is 5.01 µM [rising, full curve] and the concentration at half-maximal activity (AC50) under setting [1] is 6.31 µM [rising, full curve].
Take `Cc1cccc(-c2nsc(SCC(=O)NCc3ccc4c(c3)OCO4)n2)c1`: the concentration at half-maximal activity (AC50) under setting [2] was 35.5 µM [rising, single point] and the AC50 under setting [1] is 20 µM [rising, single point].
With `CC1CCN(c2nc3ccc(C(=O)N4CCN(Cc5ccccc5)CC4)cc3s2)CC1`, under setting [1], the AC50 is 12.6 µM [rising, single point].
Turning to `COc1ccc(N2CCN(C(=O)CCCCCn3c(=O)[nH]c4ccsc4c3=O)CC2)cc1`, the AC50 under setting [1] was 15.8 µM [falling, single point].
`COCCn1c(SCc2nc3ccccc3s2)nc2ccccc21`: the AC50 under setting [1] is 11.2 µM [rising, single point].
For the compound `COc1ccc(NC(=O)CSc2nc3c(c(=O)n2-c2ccc(C)cc2)SCC3)c(OC)c1`, the AC50 is, setting by setting: under setting [2], 31.6 µM [rising, single point]; under setting [1], 22.4 µM [rising, single point].
As to `Cc1noc(C)c1-c1nccc(Nc2ccc(F)cc2)n1`, the half-maximal activity concentration (AC50) under setting [2] is 5.01 µM [falling, partial curve, poor fit].
Turning to `O=S(=O)(NCCOC12CC3CC(CC(C3)C1)C2)c1cccc2nsnc12`, the AC50 under setting [1] is 12.6 µM [rising, single point].
On the same count and under the same terms, the result for `COc1ccc(N2C(N)=C(C#N)C(c3ccsc3)C3=C2CCCC3=O)c(OC)c1` (stereo unspecified) reads 7.08 µM [rising, partial curve].
Consider `O=C1C=C(NCc2ccco2)CC(c2ccc(Cl)cc2)C1` (stereo unspecified), for which the AC50 reads like this: under setting [2], 12.6 µM [rising, single point]; under setting [1], 20 µM [rising, single point].
Turning to `CCCCS(=O)(=O)N1CCc2nc(-c3ccc(OC)cc3C)c3c(c2C1)CO[C@@H](c1ccccc1)C3`, the AC50 under setting [1] is 5.62 µM [falling, single point].
Turning to `Cc1onc(-c2ccccc2)c1C(=O)N/N=C/c1cc(Br)c(Br)o1`, the half-maximal activity concentration (AC50) under setting [1] is 35.5 µM [rising, single point].
Consider `C=CCNC(=O)C1=NOC(CNC(=O)c2c(-c3ccccc3Cl)noc2C)C1` (stereo unspecified), for which, under setting [1], the AC50 was 11.2 µM [rising, single point].
On to `COc1ccc(OC)c(Nc2cc(C)nc3nc(C)nn23)c1`, for which, under setting [1], the AC50 is 17.8 µM [rising, single point].
On to `CC1c2[nH]c3ccccc3c2CCN1C(=O)Nc1ccccc1` (stereo unspecified), for which, under setting [1], the concentration at half-maximal activity (AC50) is 35.5 µM [rising, single point].
With `CC(CN(C)C)CN1c2ccccc2CCc2ccccc21` (stereo unspecified), the concentration at half-maximal activity (AC50) by setting is: under setting [2], 12.6 µM [falling, partial curve, poor fit]; under setting [1], 17.8 µM [falling, partial curve].
Take `Cc1ccnc(NS(=O)(=O)c2ccc(NC(=O)c3ccc(S(=O)(=O)N4CCOCC4)cc3)cc2)n1`: the AC50 under setting [1] was 0.224 µM [falling, full curve, poor fit].
Regarding `Cc1ccc(C(=O)N2CCN(S(=O)(=O)c3ccccc3[N+](=O)[O-])CC2)o1`, the AC50 runs as follows: under setting [2], 0.0316 µM [falling, full curve, poor fit]; under setting [1], 0.0316 µM [falling, full curve, poor fit].
As for `COCCOc1nc2c(c(=O)n(C)c(=O)n2C)n1CCc1ccccc1`, under setting [1], the half-maximal activity concentration (AC50) is 35.5 µM [rising, single point].
Consider `Cc1ccc(C2=NN3C(C2)c2ccccc2OC32C(=O)Nc3ccccc32)cc1` (stereo unspecified), for which the half-maximal activity concentration (AC50) was 25.1 µM [falling, single point] under setting [2] and 31.6 µM [falling, single point] under setting [1].
In the case of `COc1ccc(-c2noc(CN3CCN(c4ccccc4)CC3)n2)cc1`, the AC50 under setting [1] is 25.1 µM [rising, single point].
Consider `COc1cc(/C=N/NC(=O)c2ccc(CSc3nc4ccccc4[nH]3)cc2)ccc1O`, for which, under setting [2], the half-maximal activity concentration (AC50) is 35.5 µM [falling, partial curve, poor fit].
Turning to `O=C(COc1ccc(/C=N/NS(=O)(=O)c2ccccc2)cc1)NCCc1ccccc1`, the concentration at half-maximal activity (AC50) under setting [1] was 14.1 µM [rising, partial curve].
Still for that read-out and setting: with `Cc1cccc(OCC(=O)Nc2ccc(N3CCN(C(=O)c4ccccc4)CC3)cc2)c1` the figure was 11.2 µM [rising, single point].
`CCNS(=O)(=O)c1ccc(NC(=O)Nc2ccccc2OC)cc1`: the AC50 is 35.5 µM [falling, single point] under setting [2] and 35.5 µM [falling, single point] under setting [1].
Take `CCCCCCCCN[C@@H](C)[C@H](O)c1ccc(SC(C)C)cc1`: the AC50 is, setting by setting: under setting [2], 12.6 µM [falling, partial curve]; under setting [1], 8.91 µM [falling, single point].
As for `CCc1ccccc1NC(=O)Nc1cc(C(=O)NCc2ccc(C)cc2)ccc1N1CCCC1`, the AC50 is 7.94 µM [falling, partial curve] under setting [2] and 8.91 µM [falling, partial curve, poor fit] under setting [1].
As for `S=C(Nc1cccnc1)Nc1ccccc1Br`, the AC50 under setting [2] is 31.6 µM [rising, single point].
In the case of `O=C(CNc1ccccc1)Nc1ccc(F)cc1`, the AC50 under setting [1] was 0.0141 µM [rising, full curve, poor fit].
Take `O=C(Nc1ccc(NC(=O)c2ccco2)c(Cl)c1)c1ccccc1`: the AC50 under setting [2] is 35.5 µM [falling, partial curve, poor fit] and the AC50 under setting [1] was 22.4 µM [falling, partial curve].
As for `Cn1cc(Cl)c(C(=O)OCC(=O)Nc2nc(-c3ccc(Br)cc3)cs2)n1`, under setting [1], the AC50 is 35.5 µM [rising, single point].
For the compound `O=C(/C=C/c1ccc(OCCCF)cc1)Nc1ccnc(-c2ccncc2)n1`, the AC50 reads like this: under setting [2], 10 µM [falling, partial curve]; under setting [1], 10 µM [falling, partial curve].
With `COc1ccccc1CC(=O)Nc1cccc2c1CCCC2`, the AC50 under setting [1] is 1.78 µM [rising, partial curve, poor fit].
In the case of `O=C(/C=C/c1ccco1)Nc1cccc(-c2nc3ccccc3[nH]2)c1`, the AC50 under setting [2] is 35.5 µM [falling, single point].
Consider `COC(=O)c1cc(C(=O)Nc2nnc(C3CC3)s2)cc([N+](=O)[O-])c1`, for which the AC50 under setting [1] is 0.562 µM [falling, full curve, poor fit].
